Results taken from PubChem BioAssay AID504834 (National Center for Advancing Translational Sciences (NCATS), 2011).
Hit rate of the full screen: of about 320,000 compounds, about 22,000 (6.9%) were called active. The inconclusive results got no clear call from the source; some entries with a clear call stand among them for comparison. Calls follow the shape of the dose curve; as a rule, active = well fitted inhibition curve with a large enough effect; inconclusive = small, poorly fitted or top-dose-only effect, or another doubt; inactive = no such curve, though single readings can be large or run the other way. A potency beside an inconclusive call is a rough fit, not a confirmed value.

Experiment: Primary qHTS for delayed death inhibitors of the malarial parasite plastid, 96 hour incubation
Conditions: P. falciparum luciferase reporter growth; series mostly up to 28.7 µM; activity change, negative = inhibition: at the top concentration
How it was run: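 Erythrocytes infected with luciferase-expressing P. falciparum were dispensed at 2% hematocrit and 0.05% parasitemia (final), then incubated with compounds 96 hours at 37 C in 5% CO2. Luminescence after detection reagent addition reported growth.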
% is scaled to controls: 0 for no effect and ±100 for the full control effect; potency is read from the fitted curve at half-maximal effect.

SMILES	activity change, negative = inhibition	Potency
COc1ccccc1N1CCN(C(c2ccccc2)c2nnnn2CCc2ccccc2)CC1 (centres undefined)	inactive: -6.44%	–
CCCCNc1c(-c2ccc(OC)c(SC3CCCCC3)c2)nc2cnccn12	–	active: 9.28 µM
CCOC(=O)C1=CN(CC2CCCO2)C=C(C(=O)OCC)C1c1ccccc1C(F)(F)F (centres undefined)	–	inconclusive: 20.8 µM [inhibitor, partial curve, poor fit]
O=C(NNC1=Nc2ccccc2SC1)c1ccc(Cl)cc1	–	inconclusive: 3.7 µM [inhibitor, full curve, poor fit]
CN(C1CCCCC1)S(=O)(=O)c1ccc(NC(=S)NC(=O)c2cccs2)cc1	–	inconclusive: 13.1 µM [inhibitor, partial curve, poor fit]
CC(=O)OCCCCON1C(=O)c2ccccc2C1=O	–	inconclusive: 10.4 µM [inhibitor, single point]
CC1(C)Oc2ccc3ccc(=O)oc3c2/C(=C/Nc2ccc(O)cc2)C1=O	inactive: -13.8%	–
O=C(NC1CC1)C1=C[C@@H](c2ccc(Br)cc2)C[C@@H](OCc2ccc(CO)cc2)O1	inactive: 39.2%	–
Cc1cccc(/C=N/NC(=O)Cc2cccs2)c1	inactive: 82.2%	–
Cc1c(OCC(=O)NCc2ccncc2)ccc2c3c(c(=O)oc12)CCC3	–	active: 13.1 µM
CC(C)c1nnc(SCC(=O)NC(C)(C)C)n1C	–	inconclusive: 11.7 µM [inhibitor, single point]
COc1ccc(C(C)=O)cc1COc1cccc2c1OC(C)(C)C2	–	inconclusive: 11.7 µM [inhibitor, single point]
Cn1c(NCc2cccnc2)nc2c1c(=O)n(Cc1ccccc1F)c(=O)n2C	–	inconclusive: 3.7 µM [inhibitor, partial curve]
COC(=O)COc1ccc(/C=N/NC(=O)CN(c2ccccc2OC)S(=O)(=O)c2ccccc2)cc1	–	inconclusive: 13.1 µM [inhibitor, single point]
O=C(CNc1cc(S(=O)(=O)N2CCOCC2)ccc1NCC1CCCO1)Nc1ccccc1F (centres undefined)	–	inconclusive: 11.7 µM [inhibitor, single point]
Cn1cc(CN2CCCC(C(=O)c3ccc(-c4ccccc4)cc3)C2)cn1 (centres undefined)	–	inconclusive: 16.5 µM [inhibitor, single point]
COc1ccc(CCNc2nc(=O)[nH]nc2C)cc1OC	inactive: 29.8%	–
Cc1cc(N2CCC(C)CC2)nc2cccc(O)c12	–	active: 11.7 µM
COc1ccc(-c2[nH]ncc2CN(C)CCCN2CCOCC2)cc1F	–	inconclusive: 13.1 µM [inhibitor, partial curve, poor fit]
CC(C)CC(=O)Nc1nc2ccc(S(=O)(=O)N3CCOCC3)cc2s1	–	inconclusive: 0.657 µM [inhibitor, full curve, poor fit]
COc1ccc(-c2csc(C3=C(O)CN(C(C)C)C3=N)n2)cc1OC	–	inconclusive: 16.5 µM [inhibitor, single point]
COc1ccccc1-c1nnc(SC/C(O)=C(\C#N)c2nc3ccccc3[nH]2)n1C1CCCCC1	–	inconclusive: 9.28 µM [inhibitor, single point]
CCc1cccc(C)c1NC(=O)CCN1C(=O)NC(C)(C)C1=O	inactive: -0.722%	–

Record cards (already shown). Values in the order: activity change, negative = inhibition | Potency
CC1(C)Oc2ccc3ccc(=O)oc3c2/C(=C/Nc2ccc(O)cc2)C1=O in the list: inactive: -13.8% | –
COc1ccccc1-c1nnc(SC/C(O)=C(\C#N)c2nc3ccccc3[nH]2)n1C1CCCCC1 in the list: – | inconclusive: 9.28 µM [inhibitor, single point]

For reference, some entries already given:
SMILES	activity change, negative = inhibition	Potency
Cc1cccc(/C=N/NC(=O)Cc2cccs2)c1	inactive: 82.2%	–
Cc1c(OCC(=O)NCc2ccncc2)ccc2c3c(c(=O)oc12)CCC3	–	active: 13.1 µM
CC(C)c1nnc(SCC(=O)NC(C)(C)C)n1C	–	inconclusive: 11.7 µM [inhibitor, single point]

Later entries.

SMILES	activity change, negative = inhibition	Potency
O=C(CSc1nnc(-c2ccccc2Cl)o1)N1CCCCC1	inactive: 1.32%	–
COc1ccc(CNC(=O)c2cc(-c3ccccc3OC)on2)cc1	–	inconclusive: 14.7 µM [inhibitor, partial curve]
COc1ccc(S(=O)(=O)N2CC(C)N(C(=O)N(C)C)C2C)cc1 (centres undefined)	inactive: 19.4%	–
Cc1cc(Nc2cccc(F)c2)nc(NCc2ccccc2)n1	–	inconclusive: 1.31 µM [inhibitor, full curve, poor fit]
COc1ccc2c(c1)c(CC(=O)NCc1cc([N+](=O)[O-])ccc1O)c(C)n2C(=O)c1ccc(Cl)cc1	–	active: 5.86 µM
CN(C)c1ccc(P(=O)(OCc2ccccc2)C(O)c2ccccc2F)cc1 (centres undefined)	–	inconclusive: 13.1 µM [inhibitor, single point]
NC(=O)C1(N2CCCCC2)CCN(C(=S)Nc2ccc(F)c(Cl)c2)CC1	–	inconclusive: 14.7 µM [inhibitor, partial curve, poor fit]
N#C/C(=C\c1ccc(OCCN2CCOCC2)cc1)C(=O)Nc1ccc(S(N)(=O)=O)cc1	–	active: 6.57 µM
COCCCNC(=O)CNC(=S)N(Cc1ccccc1F)C1CCCCC1	–	inconclusive: 18.5 µM [inhibitor, partial curve, poor fit]
CCOC(=O)c1sc(NNC(=O)c2ccc(F)cc2)nc1C	–	inconclusive: 13.1 µM [inhibitor, single point]
Cc1ccccc1NC(=O)c1ccc2c(c1)OCCO2	inactive: -16.9%	–
CCOC(=O)C1(Cc2ccc(Cl)cc2)CCN(C(=O)c2cc(C)nc(C)n2)CC1	–	inconclusive: 0.294 µM [inhibitor, full curve, poor fit]
COC(=O)c1ccc(NC(=O)c2cccc(N3C(=O)C4C5C=CC(C6CC56)C4C3=O)c2)cc1 (centres undefined)	–	inconclusive: 18.5 µM [inhibitor, single point]
CC1CCCN(C(=O)C23CCC(C)(C(=O)C2)C3(C)C)C1 (centres undefined)	–	active: 9.28 µM
Cc1cccc(NC(=O)COC(=O)CCc2c[nH]c3ccccc23)c1C	–	inconclusive: 18.5 µM [inhibitor, single point]
Cc1csc(NC(=O)c2cc(-c3ccco3)nc3ccccc23)n1	inactive: 68.5%	–
OCCC1CN(Cc2ccon2)CCN1Cc1ccc(F)c(F)c1 (centres undefined)	inactive: 22%	–
NC(=O)C1CCN(C(=O)C2CCC(=O)N(CC3CCCCC3)C2)CC1 (centres undefined)	–	inconclusive: 16.5 µM [inhibitor, partial curve, poor fit]
Cn1c(-c2ccc(Br)o2)nc2ccccc21	inactive: 244%	–
COc1cccc(NC(=O)CCCn2c(=O)[nH]c3ccccc3c2=O)c1	–	inconclusive: 10.4 µM [inhibitor, single point]
CCOc1ccc2oc(=O)cc(CN3CCN(Cc4ccccc4)CC3)c2c1	–	inconclusive: 0.0026 µM [inhibitor, full curve, poor fit]
CCOc1ccccc1NC(=O)C(OC(=O)c1ccc(CC)cc1)c1ccccc1 (centres undefined)	–	inconclusive: 18.5 µM [inhibitor, single point]
Cc1nc2c(sc3nc(N4CCOCC4)c4c(c32)CC(C)(C)OC4)c(-c2ccccc2)c1C(=O)O	–	inconclusive: 10.4 µM [inhibitor, single point]

SMILES	activity change, negative = inhibition	Potency
CC(C)NC(=O)C(=O)NNC(=O)C12CC3CC(CC(C3)C1)C2	–	inconclusive: 9.28 µM [inhibitor, partial curve, poor fit]
Cc1ccc(-n2nc3c(=O)n(CC(=O)NCCc4ccc(Cl)cc4)nc(C)c3c2C)cc1	–	active: 0.928 µM
Cc1ccc(CN(C)C(=O)c2ccc(S(=O)(=O)N3CCCCCC3)cc2)o1	–	inconclusive: 10.4 µM [inhibitor, single point]
CC(=O)/C(C#N)=C1\NC(=O)C(Cc2ccc(C)c(C)c2)S1 (centres undefined)	–	inconclusive: 4.65 µM [inhibitor, partial curve, poor fit]
O=C(CCn1c(=S)oc2ccccc21)Nc1ccc(F)cc1	–	inconclusive: 13.1 µM [inhibitor, single point]
Cc1ccsc1CN1CCN(c2ccccn2)CC1	–	inconclusive: 7.38 µM [inhibitor, partial curve]
COc1ccc(C(=O)Cn2cnc3ccccc3c2=O)c(OC)c1	–	inconclusive: 18.5 µM [inhibitor, single point]
CC1=C(C(=O)OCc2ccccc2)C(c2ccc(Cl)cc2)NC(=O)N1C (centres undefined)	–	inconclusive: 0.928 µM [inhibitor, partial curve, poor fit]
CCCCN(C(=O)Cc1cccc(F)c1)c1c(N)n(CCC)c(=O)[nH]c1=O	inactive: 4.09%	–
CC1(C)OC(=O)NC1=O	inactive: -11.6%	–
O=C(COC(=O)c1ccc(-n2cnnn2)cc1)c1ccc(Br)cc1	–	inconclusive: 0.329 µM [inhibitor, full curve, poor fit]
Cc1cccc(OCC(=O)N/N=C/c2cn[nH]c2-c2ccc(Cl)c(Cl)c2)c1	–	inconclusive: 0.465 µM [inhibitor, partial curve, poor fit]
COCCn1c(=O)[nH]c2cc(C(=O)OC)ccc2c1=O	–	inconclusive: 11.7 µM [inhibitor, single point]
CC(=O)c1cccc(OCC(O)CNCC2COc3ccccc3O2)c1 (centres undefined)	inactive: 66.7%	–
CC[C@H](C)[C@@H](CN[C@H](CCCCNC)CNC)NCC1CCCC1	–	inconclusive: 18.5 µM [inhibitor, single point]
CCOc1ccc(S(=O)(=O)N2CCN(C(=O)CCC(=O)N3CCOCC3)CC2)cc1	–	inconclusive: 2.33 µM [inhibitor, full curve]
O=C(NCc1ccco1)c1cc(-c2ccccc2)c(N2CCOCC2)s1	–	inconclusive: 5.22 µM [inhibitor, partial curve, poor fit]
O=c1[nH]c(=S)[nH]c2sccc12	inactive: -16.2%	–
Cc1ccc(NC(=O)CN2C(=O)NC(C)(C3CC3)C2=O)cc1S(=O)(=O)N1CCCCC1 (centres undefined)	–	inconclusive: 11.7 µM [inhibitor, single point]
COc1ccc2oc(=O)c(C(=O)Nc3cccc(C)c3)cc2c1	inactive: 0%	–
COc1cccc(CNC(C)C(=O)Nc2ccc3c(c2)OCCO3)c1 (centres undefined)	–	inconclusive: 11.7 µM [inhibitor, single point]
O=C(Nc1ncccc1O)c1ccc(OCC2CCCO2)cc1 (centres undefined)	–	inconclusive: 18.5 µM [inhibitor, single point]
CCOC(=O)C1(Cc2ccc(Cl)cc2)CCN(C(=O)c2ccoc2)CC1	–	inconclusive: 10.4 µM [inhibitor, single point]
